Consider 42 sequences from publication PMC7819943, “Rice protein-binding microarrays: a tool to detect cis-acting elements near promoter regions in rice”.

Protein sequences, listed by entry. Tags and fused reporters are not part of them.
UniProt Q0JBA9, entry or part of it: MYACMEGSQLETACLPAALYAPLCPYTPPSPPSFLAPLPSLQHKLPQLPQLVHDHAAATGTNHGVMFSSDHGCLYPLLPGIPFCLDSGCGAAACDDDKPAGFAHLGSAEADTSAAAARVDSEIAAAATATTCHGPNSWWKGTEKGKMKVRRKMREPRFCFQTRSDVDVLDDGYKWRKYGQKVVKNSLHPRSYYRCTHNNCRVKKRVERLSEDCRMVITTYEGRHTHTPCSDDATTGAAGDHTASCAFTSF

Some of the results follow.

The target of this test is OsWRKY34 (Oryza sativa, UniProt Q0JBA9 1-250). Nature of the test: protein-binding microarray (RPBM); PBS, 2% BSA, 51.3 ng/ul salmon testes DNA, 50 uM zinc acetate, 200 nM TF, 25 C, 1 h; high values mean tight binding. As to conditions: protein: recombinant; tags: N-terminal polyhistidine and DsRed monomer fusion (pET32a); label: CyDye5-dUTP incorporated in the synthesized complementary strand; 3' TTTTT single-stranded linker to array surface; dsDNA, one strand shown. In short, it runs like this:
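Binding signal is defined as the fluorescence intensity of each feature in arbitrary units, read on an Axon 4000B scanner. Transcription factors with N-terminal polyhistidine and DsRed fusions came from E. coli BL21-CodonPlus and were purified on Ni–NTA. They were incubated at 200 nM for 1 h at 25 °C on a custom Agilent array that had been made double-stranded with Cy5-dUTP, with 50 µM zinc acetate present, and the array was washed.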
As to “TTTCGACTCCATTCACCTTTTTAAGCCTTAAGTCATGTTTCGGAGTCACCTAGTGCAG”, the binding signal was 8600 fluorescence intensity (a.u.). For “CCCTGTCCCCTTCACGGTTACCTCCTCACTTCACTCTCTTCGGAGTCACCTAGTGCAG” the value was 8900 fluorescence intensity (a.u.); for “CCTGTAACCACATTTCAATATTGAAAAGACTTTTGTTGCTCGGAGTCACCTAGTGCAG”, 8510 fluorescence intensity (a.u.). For “CTGTGACAGCAGCAGCCACCGCCCACCGCCGCCGCCGCTTCGGAGTCACCTAGTGCAG” the value was 8240 fluorescence intensity (a.u.). For “TTCTTGGAGATGGTCACCGTTGACTTCCGGCCGGACCTCACGGAGTCACCTAGTGCAG” the value was 13700 fluorescence intensity (a.u.).

In the case of “TGAGCCCATTCATTTTTATTCCGGGTGAGGAAGATGGGCCCGGAGTCACCTAGTGCAG”, the binding signal was 8200 fluorescence intensity (a.u.). The result for “CCACCGGCGAGTCCCGCTTGACCGCCACGGCGCCACCCATCGGAGTCACCTAGTGCAG” reads 8390 fluorescence intensity (a.u.); that for “TGGATTGGTCCGGTGATTGCTTGCGTTCTTATACACTAGACGGAGTCACCTAGTGCAG”, 8140 fluorescence intensity (a.u.); that for “TCCGCCTCCACCTCCGCCGCCCGCCGCCCGCCGCCCGCCGCGGAGTCACCTAGTGCAG”, 8960 fluorescence intensity (a.u.). For “GGGGAAGCTAGCAAACAGTACTACTAACCTTCTGCTTATACGGAGTCACCTAGTGCAG” the value was 8860 fluorescence intensity (a.u.); for “TTGCAACTATTATAGTACTGTATACTCCTACTAATTTAACCGGAGTCACCTAGTGCAG”, 8690 fluorescence intensity (a.u.). The result for “GATAGTTGAGGGACGCCGGACAAACTTTTTCCGCTTATTTCGGAGTCACCTAGTGCAG” reads 8120 fluorescence intensity (a.u.); that for “TAGACCTTTTTACGTTGCAACTTACTCTTACTTATATTAACGGAGTCACCTAGTGCAG”, 10700 fluorescence intensity (a.u.); that for “ACCACGTGTGCGGCCACCTTAAGTCAGCCATATATGAAACCGGAGTCACCTAGTGCAG”, 8450 fluorescence intensity (a.u.). On to “TAGTCAAAGTCAAACTATTCTAAGTTTGACTAATTATGTACGGAGTCACCTAGTGCAG”, for which the binding signal was 12100 fluorescence intensity (a.u.). In the case of “ACACACACACACACACACACACACACACACATATATATATCGGAGTCACCTAGTGCAG”, the binding signal was 8300 fluorescence intensity (a.u.). The result for “GAACTCGTTACATTGCTCTATGTGTGAAATTTATTTACGTCGGAGTCACCTAGTGCAG” reads 9780 fluorescence intensity (a.u.); that for “ACCCGAAGCTCTCTGCTGCTGCCGCTGCCGCCGCGCCGCGCGGAGTCACCTAGTGCAG”, 8920 fluorescence intensity (a.u.). The result for “TATTTTTAATTCTGAATTTCAGTTATTTCCTAATTGTATTCGGAGTCACCTAGTGCAG” reads 8290 fluorescence intensity (a.u.).

For “TCTTCGTCTCATCTGTTGCATCTAGTCCGTTCTAATCTCTCGGAGTCACCTAGTGCAG”, the binding signal is 8900 fluorescence intensity (a.u.). For “ATTGTGTGTTCTTTTTGCTTAATTAAACTTACTCTTTCTGCGGAGTCACCTAGTGCAG” the value was 11900 fluorescence intensity (a.u.); for “ACAGCTACGTTATGTTTGTTCCGATTCTCACGAAAGCAGCCGGAGTCACCTAGTGCAG”, 8310 fluorescence intensity (a.u.); for “ATAGCCAACTACTAGCTCCAATTCATATATAGCCAATCTACGGAGTCACCTAGTGCAG”, 8060 fluorescence intensity (a.u.). The result for “CGCGCGGTCGAGGAGGGTGGGGCCGCCGCGCTCACCTCCGCGGAGTCACCTAGTGCAG” reads 8480 fluorescence intensity (a.u.). For “CTCCATTTACTCTACACATGCCCGTGTTCATTCATGCAAACGGAGTCACCTAGTGCAG” the value was 9210 fluorescence intensity (a.u.); for “CCCTGGCCCTTGCTTTGATCCTAATGATCCCTATGCCCCGCGGAGTCACCTAGTGCAG”, 14400 fluorescence intensity (a.u.); for “GGAGGTCAGGATTGTTGTGGTGGGGAATTGGAGGGAAATGCGGAGTCACCTAGTGCAG”, 19600 fluorescence intensity (a.u.).

Turning to “CAACCTTGGCTCATGCCATTCAACCACCATTTTCTATTATCGGAGTCACCTAGTGCAG”, the binding signal is 9460 fluorescence intensity (a.u.).

As for “CCTACCAGCAAGCACCCACCACCAGTCCACTCCACAGTCTCGGAGTCACCTAGTGCAG”, the binding signal is 10500 fluorescence intensity (a.u.). For “TCGGTTTTTACTGCTTCCATCAGACGTCGGTCTGTTTTCGCGGAGTCACCTAGTGCAG”, the binding signal is 9470 fluorescence intensity (a.u.). The result for “CTTGACAGCTTATAGTGCAAATCCTGTGGGTTCCCTTCATCGGAGTCACCTAGTGCAG” reads 8090 fluorescence intensity (a.u.); that for “TCATTGTTCAGCCTGTTAATCGATCGCTTTAGCCTTTCATCGGAGTCACCTAGTGCAG”, 8620 fluorescence intensity (a.u.); that for “TGGGGAGAGGCTAGGTTGTTAGCTGCAGATTCATTTTATCCGGAGTCACCTAGTGCAG”, 8230 fluorescence intensity (a.u.).

Regarding “TGTAGTGGGGCCTGTCTGTAAATATCATTGTGCTTTAAGCCGGAGTCACCTAGTGCAG”, the binding signal is 10500 fluorescence intensity (a.u.). For “TTCTCTTGTTCTGTTTCTTGGACTGGTCCACTGTTTTTGGCGGAGTCACCTAGTGCAG” the value was 11100 fluorescence intensity (a.u.); for “AATTTTTTCTAGATCTGACACCACATTCTGGTCAAATTCACGGAGTCACCTAGTGCAG”, 9010 fluorescence intensity (a.u.). For “CCCATTGGCCCACACCGCCAGGTCACTCCACATCCCAACCCGGAGTCACCTAGTGCAG” the value was 10200 fluorescence intensity (a.u.); for “GCTTACCTCTCATGAACTATTGGGCCTTAAAGTCTAATAACGGAGTCACCTAGTGCAG”, 9180 fluorescence intensity (a.u.); for “TCTCCGCACGCCGTCCTGTCAGTCGCGACCCACTCCATCGCGGAGTCACCTAGTGCAG”, 8430 fluorescence intensity (a.u.).

For “AATTTTACAACCATTTATTTCTAATCGATTTCGTCATTTGCGGAGTCACCTAGTGCAG”, the binding signal is 9570 fluorescence intensity (a.u.). Turning to “TCCCCAAACATTCCATTCTTTTTTCGTTTCCAAAGTTTGTCGGAGTCACCTAGTGCAG”, the binding signal is 8610 fluorescence intensity (a.u.). In the case of “CCATCAATCCACCGCCCCGCCGCGTCTTCTCCTCGTCGGCCGGAGTCACCTAGTGCAG”, the binding signal is 8490 fluorescence intensity (a.u.).
